This is an account of results in the supplement of paper PMC7752906.

Structures are written as SMILES. Counter-ions that a name gives are not always drawn. This is one part of the list. This data set is noisy: repeats of one test often differ as much as different tests do.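 Test system: Schistosoma mansoni schistosomula, roughly 40 per well, imaged in bright field over time and compared with wells given 0.1% DMSO. Distance read-out: the paper calls a drug a hit when its Mahalanobis distance is at least 2.47, three standard deviations above the DMSO control mean. Degeneracy is the share of worms classified opaque.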

The test system of the test is Schistosoma mansoni schistosomula. The experiment in a line: degeneracy (percent of somules classified as degenerate/opaque); higher = more parasite degeneration/death; extreme values may be limits of the assay. The note with it: 10 µM; 72 h.
As for `CN(C)CCN(Cc1ccccc1)c1ccccn1` [Tripelennamine], the degeneracy came out at 14.3%.

Take `CN1C(=O)CC(c2ccccc2)C1=O` (stereo not drawn) [Phensuccimide]: the degeneracy is 2.7%.

Take `Nc1ccn([C@@H]2O[C@H](CO)[C@@H](O)C2(F)F)c(=O)n1` [Gemcitabine]: the degeneracy came out at 0%.

On to `CC(=O)O[C@@]12CO[C@@H]1C[C@H](O)[C@@]1(C)C(=O)[C@H](O)C3=C(C)[C@@H](OC(=O)[C@H](O)[C@@H](NC(=O)OC(C)(C)C)c4ccccc4)C[C@@](O)([C@@H](OC(=O)c4ccccc4)[C@H]21)C3(C)C` [Docetaxel], for which the degeneracy is 92.3%.

Compound `C[C@]12CC[C@@H]3c4ccc(O)cc4CC[C@H]3[C@@H]1CC[C@@H]2O` [Estradiol] displayed a degeneracy of 7.5%.

The compound `C[C@]12CC[C@@H]3c4ccc(O)cc4CC[C@H]3[C@@H]1CC[C@@H]2O` [Beta-estradiol] came in with a degeneracy of 11.1%.

Regarding `CCN(CC)C(=O)c1cccc(C)c1` [Deet, Diethyltoluamide], the degeneracy is 2.7%.

For the compound `CCN(CC)C(=O)c1cccnc1` [Nikethamide], the degeneracy was 3.57%.

As to `CCCN(CCC)S(=O)(=O)c1ccc(C(=O)O)cc1` [Probenecid], the degeneracy worked out at 8%.

`CN(C)CC/C=C1/c2ccccc2Sc2ccc(Cl)cc21` [Chlorprothixene Hydrochloride] had a degeneracy of 100%.

Take `COc1ccc2[nH]c([S+]([O-])Cc3ncc(C)c(OC)c3C)nc2n1` (stereo not drawn) [Tenatoprazole]: the degeneracy turned out to be 0%.

`O=C(O)CCCCC(=O)O` [Adipic Acid, Hexanedioic Acid] came in with a degeneracy of 9.09%.

`NC[C@@H]1CC[C@@H](N)[C@@H](O[C@H]2[C@H](O)[C@@H](O[C@H]3O[C@H](CO)[C@@H](O)[C@H](N)[C@H]3O)[C@H](N)C[C@@H]2N)O1` [Dibekacin]: the degeneracy stood at 17.1%.

Regarding `N=C(N)NS(=O)(=O)c1ccc(N)cc1` [Sulfaguanidine], the degeneracy was found to be 14.3%.

Take `Cc1ncc(CO)c(CO)c1O` [Pyridoxine]: the degeneracy worked out at 8.57%.

Compound `COc1cc(C(=O)NCCCCCC(=O)O)cc(OC)c1OC` [Capobenic Acid] yielded a degeneracy of 14.3%.

`CC1=C(C(=O)O)N2C(=O)[C@@H](NC(=O)[C@H](N)C3=CCC=CC3)[C@H]2SC1` [Cephradine] registered a degeneracy of 12.8%.

Regarding `N[C@@H](CCC(=O)N[C@@H](CS)C(=O)NCC(=O)O)C(=O)O` [Glutathione], the degeneracy is 0%.

`CCCCC(CC)CCC(CC(C)C)OS(=O)(=O)O` (stereo not drawn) [Sodium Tetradecyl Sulfate] yielded a degeneracy of 100%.

`COc1ccc2cc([C@H](C)CO)ccc2c1` [Naproxol] had a degeneracy of 4.35%.

`C#C[C@]1(OC(C)=O)CC[C@H]2[C@@H]3CCC4=CC(=NO)CC[C@@H]4[C@H]3CC[C@@]21CC` (mixture of isomers) [Norgestimate] returned a degeneracy of 27.6%.

For the compound `Clc1ccc(CO/N=C(\Cn2ccnc2)c2ccc(Cl)cc2Cl)c(Cl)c1` [Oxiconazole], the degeneracy came out at 18.9%.

The compound `Clc1ccc(Cn2c(CN3CCCC3)nc3ccccc32)cc1` [Clemizole Hydrochloride] returned a degeneracy of 100%.

On to `CCCCCCCCCCCCCCCC(=O)OC[C@@H](NC(=O)C(Cl)Cl)[C@H](O)c1ccc([N+](=O)[O-])cc1` [Chloramphenicol Palmitate], for which the degeneracy was 12.9%.

`[O-][n+]1cccc(CO)c1` [Mepiroxol] gave a degeneracy of 100%.

For the compound `Cc1ccnc(NS(=O)(=O)c2ccc(N)cc2)n1` [Sulfamerazine], the degeneracy amounted to 100%.

For the compound `NC(=O)OCC(COC(N)=O)c1ccccc1` [Felbamate], the degeneracy came to 9.43%.

In the case of `COC(=O)N[C@H](C(=O)N[C@@H](Cc1ccccc1)[C@@H](O)CN(Cc1ccc(-c2ccccn2)cc1)NC(=O)[C@@H](NC(=O)OC)C(C)(C)C)C(C)(C)C` [Atazanavir], the degeneracy is 6.25%.

With `NCCCC(O)(P(=O)(O)O)P(=O)(O)O` [Alendronate Sodium], the degeneracy was 6.9%.

Take `CNC[C@H](O)[C@@H](O)[C@H](O)[C@H](O)CO` [Meglumine]: the degeneracy is 2.08%.

For the compound `CCCCNc1cc(C(=O)O)cc(S(N)(=O)=O)c1Oc1ccccc1` [Bumetanide], the degeneracy came to 10%.

As for `CC(C)n1c(/C=C/C(O)CC(O)CC(=O)O)c(-c2ccc(F)cc2)c2ccccc21` (stereo not drawn) [fluvastatin], the degeneracy came out at 82.6%.

Regarding `CC(C)CCCC(C)N` (stereo not drawn) [Octodrine], the degeneracy was 8.7%.

On to `CC(=O)N[C@@H](CS)C(=O)O` [Acetylcysteine], for which the degeneracy is 0%.

`OC(c1cc(C(F)(F)F)nc2c(C(F)(F)F)cccc12)C1CCCCN1` (stereo not drawn) [mefloquine] registered a degeneracy of 100%.

Take `CNCCCC12CCC(c3ccccc31)c1ccccc12` [Maprotiline]: the degeneracy was 100%.

In turn, `CC1(C)C[C@@H]1C(=O)N/C(=C\CCCCSC[C@H](N)C(=O)O)C(=O)O` [Cilastatin] had a degeneracy of 2.94%.

Consider `C[C@@H](O)[C@H]1C(=O)N2C(C(=O)O)=C(S[C@@H]3CN[C@H](C(=O)N(C)C)C3)[C@H](C)[C@H]12` [Meropenem], for which the degeneracy is 0%.

Compound `Cc1cc(C)cc(OCC2CNC(=O)O2)c1` (stereo not drawn) [Metaxalone] had a degeneracy of 4%.

In turn, `CC(=O)O[C@H]1C[C@@H]2CC[C@@H]3[C@H](CC[C@@]4(C)[C@H]3C[C@H]([N+]3(C)CCCCC3)[C@@H]4OC(C)=O)[C@@]2(C)C[C@@H]1N1CCCCC1` [Vecuronium Bromide] gave a degeneracy of 0%.

For `CC1(C)O[C@@H]2C[C@H]3[C@@H]4CCC5=CC(=O)CC[C@]5(C)[C@@]4(F)[C@@H](O)C[C@]3(C)[C@]2(C(=O)CCl)O1` [Halcinonide], the degeneracy was found to be 3.33%.

As for `C[C@]12C=CC(=O)C=C1CC[C@H]1[C@@H]3C[C@@H](O)[C@](O)(C(=O)CO)[C@@]3(C)C[C@H](O)[C@@]12F` [Triamcinolone], the degeneracy amounted to 7.14%.

The compound `CCN(CC)C(=O)/C(C#N)=C/c1cc(O)c(O)c([N+](=O)[O-])c1` [Entacapone] returned a degeneracy of 2.04%.

`C[C@@H]1O[C@@H](OC[C@H]2O[C@@H](Oc3c(-c4ccc(OCCO)c(OCCO)c4)oc4cc(OCCO)cc(O)c4c3=O)[C@H](O)[C@@H](O)[C@@H]2O)[C@H](O)[C@H](O)[C@H]1O` [Troxerutin] registered a degeneracy of 9.68%.

Turning to `CN1C(=O)OC(C)(C)C1=O` [Trimethadione], the degeneracy came to 4.35%.

The compound `CC(=O)CCCCn1c(=O)c2c(ncn2C)n(C)c1=O` [Pentoxifylline] gave a degeneracy of 7.89%.

As for `Nc1c(CC(=O)O)cccc1C(=O)c1ccc(Br)cc1` [Bromfenac], the degeneracy is 6.82%.

Take `COc1c(C)c2c(c(O)c1C/C=C(\C)CCC(=O)O)C(=O)OC2` [Mycophenolic Acid]: the degeneracy was found to be 9.09%.
